{
  "source": "paper PMC9233675",
  "about": "“Ru(II) photocages enable precise control over enzyme activity with red light” (Nature Communications, 2022)",
  "experiment": "Photoejection studies: quantum yield for photosubstitution",
  "format": "physicochemical",
  "conditions": "for ΦPS: λirr = 470 nm",
  "note": "Marks after values point to notes of the source that are not given here.",
  "data": [
    {"smiles": "COc1ccc(/C=C/c2cc[n+]([Ru-4]345([n+]6ccccc6-c6cccc([n+]63)-c3cccc[n+]34)[n+]3c(cc(C(=O)[O-])c4ccccc43)-c3cc(C(=O)[O-])c4ccccc4[n+]35)cn2)c(OC)c1", "note": "[Compound 5]", "values": [
      {"measurement": "Φ(PS) Opti-MEM", "setting": "optical approach, 470 nm", "value": "0.013 ± 0.002"}
    ]},
    {"smiles": "COc1ccc(/C=C/c2cc[n+]([Ru-4]345([n+]6ccccc6-c6cccc([n+]63)-c3cccc[n+]34)[n+]3c(cc(C(=O)[O-])c4ccccc43)-c3cc(C(=O)[O-])c4ccccc4[n+]35)cc2)c(OC)c1", "note": "[Compound 6]", "values": [
      {"measurement": "Φ(PS) CH3OH", "setting": "CH3OH, 470 nm", "value": "0.002 ± 0.00005"},
      {"measurement": "ΦPS", "setting": "in MeCN by HPLC", "value": "0.0081 ± 0.0006 ^f"}
    ]},
    {"smiles": "O=C([O-])c1cc2[n+](c3ccccc13)[Ru-4]13([n+]4ccccc4)([n+]4ccccc4-c4cccc([n+]41)-c1cccc[n+]13)[n+]1c-2cc(C(=O)[O-])c2ccccc21", "note": "[Compound 8, [Ru(tpy)(bca)(pyridine)]]", "values": [
      {"measurement": "Φ(PS) Opti-MEM", "setting": "optical approach, 470 nm", "value": "0.004 ± 0.00005"},
      {"measurement": "ΦPS", "setting": "quantum yield for photosubstitution, 5% DMSO in H2O, optical approach, n = 3", "value": "0.0059 ± 0.0005"}
    ]}
  ]
}
